Results are given in words; binding and its absence hold for the method and conditions named. A result given as binding can be weak or reduced; the word gives no strength.
Tests used:
[1] = molecular target: Estrogen Receptor (Homo sapiens (Human)); experiment: phage isolation method (Table 3)
[2] = molecular target: Estrogen Receptor (Homo sapiens (Human)); experiment: phage peptide, unliganded ER
[3] = molecular target: Estrogen Receptor (Homo sapiens (Human)); experiment: phage peptide, ER + estradiol

In the case of SAACATISHYLMGG [#48 ER], the binding [1] is reported as “binds”.

In the case of HGPLTLNLLRSSGG [#41 ER + estradiol], the binding [1] is reported as “binds”.

With SSWVVLRDLPWGSR [phage 29] the binding [2] was “binds”.

For HSFPRESLLVRLLQGG [phage 42], the binding [3] was “binds”.

SRWESPLGTWEWSR [phage 4] was tested, and the binding [2] was “binds”.
